The supplement of paper PMC11348887
Structures can show the parent of a compound that is named as a salt. The list shows a part of the results. Most values lie at the level of the controls, where differences are scatter.

The molecules below were run on hPSC-derived cortical neurons (WA09) (assay: KCl-induced FOS+/EGR-1+ double-positive nuclei fraction z-score (KCl minus unstimulated); higher = stronger activity-induced IEG response). Conditions: 5 µM; treatment: days 7-14 after plating, readout day 21.

| SMILES | KCl-induced FOS+/EGR-1+ double-positive nuclei fraction z-score |
| --- | --- |
| CC1=C(/C=C/C(C)=C/C=C/C(C)=C\C(=O)O)C(C)(C)CCC1 [Isotretinoin] | -0.0657 |
| Cc1ccsc1C(=CCCN1CCC[C@@H](C(=O)O)C1)c1sccc1C [Tiagabine hydrochloride] | 0.00252 |
| C#C[C@]1(O)CC[C@H]2[C@@H]3CCc4cc(O)ccc4[C@H]3CC[C@@]21C [Ethinyl Estradiol] | 1.7 |
| O=C(Nc1c(Cl)cncc1Cl)c1ccc(OC(F)F)c(OCC2CC2)c1 [Roflumilast] | -1.49 |
| O=C(/C=C/c1cccc(S(=O)(=O)Nc2ccccc2)c1)NO [Belinostat (PXD101)] | -1.43 |
| O=C1[C@H](Cc2ccc(O)cc2)N2C(=O)CCN(C(=O)NCc3ccccc3)[C@H]2CN1Cc1cccc2ccccc12 | -0.204 |
| Cn1c(=O)c2c(ncn2CC2OCCO2)n(C)c1=O [Doxofylline] | -0.771 |
| OC[C@@H](O)[C@@H](O)[C@@H](O)CO [Ribitol] | 0.103 |
| CNC(=O)c1ccc2cc([C@@]3(O)CCn4cncc43)ccc2c1 [TAK-700 (Orteronel)] | -0.258 |
| Cc1cc(-c2ccc(CC(=O)Nc3ccc(-c4cccnc4)cc3)cc2)ccn1 | 0.569 |
| Cc1ccc(Nc2nccc(N(C)c3ccc4c(C)n(C)nc4c3)n2)cc1S(N)(=O)=O [Pazopanib] | 1.45 |
| CC(C)C[C@H](NC(=O)[C@H](Cc1ccccc1)C[C@@H](O)[C@H](Cc1ccccc1)NC(=O)OC(C)(C)C)C(=O)N[C@@H](Cc1ccccc1)C(N)=O | 0.429 |
| Nc1nc(OCc2cc(Br)cs2)c2[nH]cnc2n1 [Lomeguatrib] | -0.0471 |
| O=C(O)CCCCC(CCSCc1ccccc1)SCc1ccccc1 (stereo unspecified) | -0.0465 |
| Cc1ccc(Sc2ccccc2N2CCNCC2)c(C)c1 | 1.05 |
| CS(=O)(=O)c1ccc([C@@H](O)[C@@H](CF)NC(=O)C(Cl)Cl)cc1 [Florfenicol] | 2.45 |

| SMILES | KCl-induced FOS+/EGR-1+ double-positive nuclei fraction z-score |
| --- | --- |
| Cc1c(-c2ccnn2C)cc(C(=O)NCc2ccc(S(C)(=O)=O)cn2)c(=O)n1-c1cccc(C(F)(F)F)c1 [Alvelestat (AZD9668)] | 0.787 |
| Cc1onc(-c2ccccc2Cl)c1C(=O)N[C@@H]1C(=O)N2[C@@H]1SC(C)(C)[C@@H]2C(=O)O [Cloxacillin Sodium] | -0.668 |
| CCCc1cc(C(N)=S)ccn1 [Protionamide] | -0.764 |
| C=CCNC(N)=S [Allylthiourea] | 0.813 |
| CC[C@H](C)C(=O)O[C@H]1C[C@@H](C)C=C2C=C[C@H](C)[C@H](CC[C@@H]3C[C@@H](O)CC(=O)O3)[C@H]21 [Lovastatin] | -0.147 |
| COc1cc2c(cc1O)CC[C@@H]1[C@@H]2CC[C@]2(C)[C@@H](O)CC[C@@H]12 [2-Methoxyestradiol (2-MeOE2)] | -0.185 |
| c1cncc(CN2CCC(n3ncc4c(N5CCOCC5)nc(-c5ccc6[nH]ccc6c5)nc43)CC2)c1 | -0.838 |
| Clc1ccc(CSC(Cn2ccnc2)c2ccc(Cl)cc2Cl)cc1 (stereo unspecified) [Sulconazole Nitrate] | -0.0835 |
| Cc1c(OCC(F)(F)F)ccnc1C[S@@+]([O-])c1nc2ccccc2[nH]1 [Dexlansoprazole] | -0.353 |
| Cc1ccccc1C(=O)Nc1ccc(C(=O)N2CCCC(O)c3cc(Cl)ccc32)c(C)c1 (stereo unspecified) [Tolvaptan] | -0.317 |
| C[N+](C)(C)CCOC(=O)CCC(=O)OCC[N+](C)(C)C [Succinylcholine Chloride Dihydrate] | 0.896 |
| NC(=O)c1ccc(-c2nc(-c3ccccn3)c(-c3ccc4c(c3)OCO4)[nH]2)cc1 | -1.04 |
| Nc1ccn([C@@H]2O[C@H](CO)[C@@H](O)C2(F)F)c(=O)n1 [Gemcitabine] | -1.12 |
| CC[C@@H]1/C=C(\C)C[C@H](C)C[C@H](OC)[C@H]2O[C@@](O)(C(=O)C(=O)N3CCCC[C@H]3C(=O)O[C@H](/C(C)=C/[C@@H]3CC[C@H](Cl)[C@H](OC)C3)[C@H](C)[C@@H](O)CC1=O)[C@H](C)C[C@@H]2OC [Pimecrolimus] | -0.344 |
| NCc1c[nH]c(=S)n1[C@@H]1CCc2c(F)cc(F)cc2C1 [(R)-Nepicastat HCl] | 0.656 |

Reformatted: 2 of the compounds above
SMILES | KCl-induced FOS+/EGR-1+ double-positive nuclei fraction z-score
Cc1ccc(Nc2nccc(N(C)c3ccc4c(C)n(C)nc4c3)n2)cc1S(N)(=O)=O [Pazopanib] | 1.45
CC(C)C[C@H](NC(=O)[C@H](Cc1ccccc1)C[C@@H](O)[C@H](Cc1ccccc1)NC(=O)OC(C)(C)C)C(=O)N[C@@H](Cc1ccccc1)C(N)=O | 0.429
